Paper PMC6118090
Results are given in words; binding and its absence hold for the method and conditions named. Binding seen in cells or lysates may run through a third protein. Binding can be weak; no strength is given.

Target: T1, Receptor interaction protein 3 (RIP3) (rat (endogenous in NRK-52E)) (UniProt Q9Z2P5)
T1 sequence: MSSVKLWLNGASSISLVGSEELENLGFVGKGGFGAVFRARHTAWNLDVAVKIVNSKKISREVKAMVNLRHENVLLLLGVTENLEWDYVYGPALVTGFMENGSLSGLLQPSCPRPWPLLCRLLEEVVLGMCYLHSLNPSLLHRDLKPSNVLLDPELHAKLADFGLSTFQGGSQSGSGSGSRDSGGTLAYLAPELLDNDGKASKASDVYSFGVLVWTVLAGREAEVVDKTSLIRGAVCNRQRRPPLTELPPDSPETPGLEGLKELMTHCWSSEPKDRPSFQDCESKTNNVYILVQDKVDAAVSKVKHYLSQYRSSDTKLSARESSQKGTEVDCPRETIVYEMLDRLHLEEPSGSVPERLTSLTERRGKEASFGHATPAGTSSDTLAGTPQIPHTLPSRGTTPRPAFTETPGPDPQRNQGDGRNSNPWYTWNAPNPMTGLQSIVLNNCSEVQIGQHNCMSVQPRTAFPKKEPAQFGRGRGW
Assay: co-IP; whole cell lysates of NRK-52E cells after 6 hr of hypoxia and 1, 12 or 24 hr of reoxygenation; 500 µg protein extract with 1 µg IP antibody, protein G Sepharose, 4 °C overnight, four washes with cell lysis buffer; Western blot

“Receptor-interacting kinase 1 (RIP1) (rat (endogenous in NRK-52E))” was tested. Which binding did it give?
Its binding is “binds”.
